From US20080287398A1, “COLD MENTHOL RECEPTOR-1 ANTAGONISTS” (priority 2007, published 2008)
“And” between values parts separate entries of the source, which are not always exact repeats. Equal entries are not always repeated. The name of at least one read-out is uncertain.

Sequences of proteins named here, by UniProt entry; tags and fusion partners are left off. Residues count along the entry.
UniProt Q1A7N1, 1-1104: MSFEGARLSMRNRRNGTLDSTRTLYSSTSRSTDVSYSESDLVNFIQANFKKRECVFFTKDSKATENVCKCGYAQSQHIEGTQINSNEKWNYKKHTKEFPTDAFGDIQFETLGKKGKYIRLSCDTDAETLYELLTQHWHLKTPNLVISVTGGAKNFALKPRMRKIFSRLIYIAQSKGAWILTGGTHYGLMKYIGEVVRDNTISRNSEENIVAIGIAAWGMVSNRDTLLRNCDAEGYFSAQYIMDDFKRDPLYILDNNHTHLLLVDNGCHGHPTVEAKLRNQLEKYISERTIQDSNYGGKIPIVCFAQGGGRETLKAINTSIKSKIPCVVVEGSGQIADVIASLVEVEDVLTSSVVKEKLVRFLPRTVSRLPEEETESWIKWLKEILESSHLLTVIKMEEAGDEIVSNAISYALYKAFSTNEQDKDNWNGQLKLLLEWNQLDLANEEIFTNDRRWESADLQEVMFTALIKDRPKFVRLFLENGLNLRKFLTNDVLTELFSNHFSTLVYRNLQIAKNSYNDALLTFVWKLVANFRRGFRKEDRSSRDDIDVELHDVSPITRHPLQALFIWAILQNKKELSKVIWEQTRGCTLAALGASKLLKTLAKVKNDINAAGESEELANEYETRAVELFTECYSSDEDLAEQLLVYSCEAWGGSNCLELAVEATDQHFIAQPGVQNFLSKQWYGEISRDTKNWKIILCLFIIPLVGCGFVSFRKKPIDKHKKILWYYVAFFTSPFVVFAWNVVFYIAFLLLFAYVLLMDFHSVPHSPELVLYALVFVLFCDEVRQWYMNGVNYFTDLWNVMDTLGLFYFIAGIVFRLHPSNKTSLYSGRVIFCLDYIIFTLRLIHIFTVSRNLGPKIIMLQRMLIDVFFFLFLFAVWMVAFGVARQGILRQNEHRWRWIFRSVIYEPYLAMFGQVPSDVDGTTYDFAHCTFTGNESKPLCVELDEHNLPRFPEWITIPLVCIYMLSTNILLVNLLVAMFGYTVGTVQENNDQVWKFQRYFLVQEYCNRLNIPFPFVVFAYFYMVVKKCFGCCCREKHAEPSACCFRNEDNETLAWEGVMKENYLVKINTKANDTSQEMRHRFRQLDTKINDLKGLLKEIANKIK

Molecular target: T1, canine TRPM8 (Canis lupus familiaris, UniProt Q1A7N1)
T1 construct: expressed in transfected cells
Test: In vitro canine TRPM8 functional assay (Ca2+-sensitive dye, FLIPR/FDSS, icilin activation)
Format: cell-based
Details: HEK293 cells expressing canine TRPM8, icilin activation; for % I (1 μM): 1 μM compound; for % I (0.5 μM): 0.5 μM compound
Experimental: The functional activity of compounds of Formula (I) was determined by measuring changes in intracellular calcium concentration using a Ca^2+-sensitive fluorescent dye. The changes in fluorescent signal were monitored by a fluorescence plate reader, either a FLIPR™ (Molecular Devices) or FDSS (Hamamatsu).
HEK293 cells stably expressing canine TRPM8 were routinely grown as monolayers in Dulbecco's minimum essential medium supplemented with 10% FBS, 1 mM L-glutamine, 100 units/mL penicillin, 100 ug/mL streptomycin and 400 μg/mL G418. Cells were maintained in 5% CO2 at 37° C. At 24 hrs prior to assay, cells were seeded in clear-base poly-D-lysine coated 384-well plates (BD Biosciences, NJ, USA) at a density of 5,000 cells per well in culture medium and grown overnight in 5% CO2 at 37° C. On assay day, growth media was removed and cells were loaded with Calcium 3 Dye (Molecular Devices) for 35 min at 37° C., under 5% CO2 and then for 25 min at room temperature and atmosphere. Subsequently, cells were tested for agonist-induced increases in intracellular Ca^2+ levels using FLIPR™ or FDSS. Cells were challenged with a compound of Formula (I) (at varying concentrations) and intracellular Ca^2+ was measured for 5 min prior to the addition of icilin to all wells to achieve a final concentration which produces approximately an 80% maximal response.
Basal FI was subtracted prior to normalizing data to percent of maximal response. Curves were generated using the average of quadruplicate wells for each data point, were analyzed using nonlinear regression of either sigmoidal dose response or sigmoidal dose response (variable slope). Finally, the EC50 and IC50 values were calculated with the best-fit dose curve determined by GraphPad Prism.

SMILES | % I (1 μM) | % I (0.5 μM)
CC(C)OP(=O)(OC(C)C)C(Cc1ccc(F)c(F)c1)c1sc2ccccc2c1Br (centres unmarked) [Cpd 15, [1-(3-Bromo-benzo[b]thiophen-2-yl)-2-(3,4-difluoro-phenyl)-ethyl]-phosphonic acid diisopropyl ester] | 100% and 103% | –
Cc1c(C(Cc2ccc(F)c(F)c2)P(=O)(OC(C)C)OC(C)C)sc2ncccc12 (centres unmarked) [Cpd 34, [2-(3,4-Difluoro-phenyl)-1-(3-methyl-thieno[2,3-b]pyridin-2-yl)-ethyl]-phosphonic acid diisopropyl ester] | 101, 101% | –
Cc1c(C(Cc2ccc(F)c(F)c2)P(=O)(OCC(C)(C)C)OCC(C)(C)C)sc2ccccc12 (centres unmarked) [Cpd 53, [2-(3,4-Difluoro-phenyl)-1-(3-methyl-benzo[b]thiophen-2-yl)-ethyl]-phosphonic acid bis-(2,2-dimethyl-propyl) ester] | 97% | –
CC(C)OP(=O)(OC(C)C)[C@H](Cc1ccc(F)c(F)c1)c1sc2ccccc2c1Br [Cpd 235, (R)-[1-(3-Bromo-benzo[b]thiophen-2-yl)-2-(3,4-difluoro-phenyl)-ethyl]-phosphonic acid diisopropyl ester] | – | 93% and 56%
CC(C)OP(=O)(OC(C)C)[C@H](Cc1ccc(F)c(C(F)(F)F)c1)c1sc2ccccc2c1Br [Cpd 243, (R)-[1-(3-Bromo-benzo[b]thiophen-2-yl)-2-(4-fluoro-3-trifluoromethyl-phenyl)-ethyl]-phosphonic acid diisopropyl ester] | – | 64%
